Test results reported in article PMC11971462, “Generation and validation of a novel multitarget small molecule in glioblastoma” (Cell Death & Disease, 2025).

System: GNS166 cells
Conditions: GNS166, 5 µM, 48 h; fold-change > 4, p < 0.01

SMILES: C#CCN(Cc1cc2cc(OCCCN3CCCCC3)ccc2n1S(=O)(=O)c1ccccc1)C(=O)CCCCCCC(=O)NO [DDI199]
- Number of downregulated genes (RNAseq): 204
- Number of upregulated genes (RNAseq): 952
